Source: the supplement of paper PMC10849652
This is one part of the list.

Chains of the proteins cited; added tags and fusions are not shown. Lines headed by an entry give the natural chain unless they say otherwise; changes in a name come on top.
UniProt P61916: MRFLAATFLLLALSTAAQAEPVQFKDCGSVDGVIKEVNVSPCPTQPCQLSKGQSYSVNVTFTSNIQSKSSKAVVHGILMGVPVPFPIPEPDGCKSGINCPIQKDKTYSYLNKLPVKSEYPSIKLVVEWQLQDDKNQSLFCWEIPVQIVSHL
UniProt Q9Y639: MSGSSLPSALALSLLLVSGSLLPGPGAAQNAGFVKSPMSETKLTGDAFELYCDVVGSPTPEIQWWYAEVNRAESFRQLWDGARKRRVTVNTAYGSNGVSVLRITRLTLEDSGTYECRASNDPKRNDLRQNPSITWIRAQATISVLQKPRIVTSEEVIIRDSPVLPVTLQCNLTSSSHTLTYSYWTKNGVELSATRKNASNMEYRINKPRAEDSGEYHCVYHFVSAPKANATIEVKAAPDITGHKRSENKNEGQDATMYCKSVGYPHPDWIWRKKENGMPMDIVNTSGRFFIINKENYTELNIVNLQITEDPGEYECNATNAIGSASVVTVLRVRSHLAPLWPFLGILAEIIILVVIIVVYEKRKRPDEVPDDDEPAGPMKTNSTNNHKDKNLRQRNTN
UniProt Q13423: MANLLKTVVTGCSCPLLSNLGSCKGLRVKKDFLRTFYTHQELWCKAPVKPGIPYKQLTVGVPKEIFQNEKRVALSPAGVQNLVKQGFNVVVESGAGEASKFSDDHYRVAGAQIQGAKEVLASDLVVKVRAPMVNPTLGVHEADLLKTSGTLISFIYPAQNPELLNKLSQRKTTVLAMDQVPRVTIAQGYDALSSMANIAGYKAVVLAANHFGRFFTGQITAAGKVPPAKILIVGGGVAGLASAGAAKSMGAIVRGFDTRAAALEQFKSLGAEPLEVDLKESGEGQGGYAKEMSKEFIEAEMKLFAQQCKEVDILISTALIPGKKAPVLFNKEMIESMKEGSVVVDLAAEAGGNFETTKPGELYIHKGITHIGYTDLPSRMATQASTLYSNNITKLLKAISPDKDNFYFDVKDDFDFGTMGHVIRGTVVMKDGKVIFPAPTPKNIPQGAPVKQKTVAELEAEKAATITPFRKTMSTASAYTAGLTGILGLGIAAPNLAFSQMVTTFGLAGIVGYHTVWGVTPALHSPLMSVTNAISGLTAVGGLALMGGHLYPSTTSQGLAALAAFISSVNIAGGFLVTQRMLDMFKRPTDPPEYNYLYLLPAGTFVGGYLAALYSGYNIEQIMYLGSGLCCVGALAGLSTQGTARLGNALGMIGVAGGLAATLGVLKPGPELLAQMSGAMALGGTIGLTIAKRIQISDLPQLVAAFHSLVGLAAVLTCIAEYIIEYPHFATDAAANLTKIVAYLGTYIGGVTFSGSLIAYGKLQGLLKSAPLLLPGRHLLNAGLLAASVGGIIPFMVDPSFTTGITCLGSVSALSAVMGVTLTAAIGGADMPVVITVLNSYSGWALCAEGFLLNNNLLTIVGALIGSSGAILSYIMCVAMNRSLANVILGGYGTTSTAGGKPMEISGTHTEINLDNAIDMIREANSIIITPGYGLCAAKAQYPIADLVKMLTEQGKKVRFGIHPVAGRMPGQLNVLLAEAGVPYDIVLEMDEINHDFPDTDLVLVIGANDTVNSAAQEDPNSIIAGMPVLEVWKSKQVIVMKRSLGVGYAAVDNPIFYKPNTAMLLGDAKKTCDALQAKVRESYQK
UniProt P78549: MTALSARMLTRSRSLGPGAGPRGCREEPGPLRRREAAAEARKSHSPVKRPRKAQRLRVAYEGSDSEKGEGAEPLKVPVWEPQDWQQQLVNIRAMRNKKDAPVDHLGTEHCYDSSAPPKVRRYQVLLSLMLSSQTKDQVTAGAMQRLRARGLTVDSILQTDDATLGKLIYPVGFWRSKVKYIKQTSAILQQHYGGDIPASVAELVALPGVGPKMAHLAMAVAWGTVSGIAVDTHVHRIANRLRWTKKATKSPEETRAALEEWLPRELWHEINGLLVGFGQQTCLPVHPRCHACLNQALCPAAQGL
UniProt Q9Y5B8, whole entry, looked up: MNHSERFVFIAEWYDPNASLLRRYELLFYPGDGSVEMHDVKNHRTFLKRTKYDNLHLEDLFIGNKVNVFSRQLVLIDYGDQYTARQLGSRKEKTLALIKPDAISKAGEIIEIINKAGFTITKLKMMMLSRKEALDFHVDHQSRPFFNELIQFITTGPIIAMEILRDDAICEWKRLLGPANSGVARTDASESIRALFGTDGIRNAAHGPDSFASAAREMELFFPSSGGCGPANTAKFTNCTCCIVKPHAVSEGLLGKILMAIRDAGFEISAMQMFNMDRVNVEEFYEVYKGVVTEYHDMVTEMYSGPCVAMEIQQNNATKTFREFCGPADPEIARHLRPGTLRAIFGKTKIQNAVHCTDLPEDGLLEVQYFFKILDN
UniProt P50583: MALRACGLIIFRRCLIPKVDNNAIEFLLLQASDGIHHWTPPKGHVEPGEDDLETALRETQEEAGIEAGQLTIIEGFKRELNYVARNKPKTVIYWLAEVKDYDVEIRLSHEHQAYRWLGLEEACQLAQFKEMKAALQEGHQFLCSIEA
UniProt Q9H8H0: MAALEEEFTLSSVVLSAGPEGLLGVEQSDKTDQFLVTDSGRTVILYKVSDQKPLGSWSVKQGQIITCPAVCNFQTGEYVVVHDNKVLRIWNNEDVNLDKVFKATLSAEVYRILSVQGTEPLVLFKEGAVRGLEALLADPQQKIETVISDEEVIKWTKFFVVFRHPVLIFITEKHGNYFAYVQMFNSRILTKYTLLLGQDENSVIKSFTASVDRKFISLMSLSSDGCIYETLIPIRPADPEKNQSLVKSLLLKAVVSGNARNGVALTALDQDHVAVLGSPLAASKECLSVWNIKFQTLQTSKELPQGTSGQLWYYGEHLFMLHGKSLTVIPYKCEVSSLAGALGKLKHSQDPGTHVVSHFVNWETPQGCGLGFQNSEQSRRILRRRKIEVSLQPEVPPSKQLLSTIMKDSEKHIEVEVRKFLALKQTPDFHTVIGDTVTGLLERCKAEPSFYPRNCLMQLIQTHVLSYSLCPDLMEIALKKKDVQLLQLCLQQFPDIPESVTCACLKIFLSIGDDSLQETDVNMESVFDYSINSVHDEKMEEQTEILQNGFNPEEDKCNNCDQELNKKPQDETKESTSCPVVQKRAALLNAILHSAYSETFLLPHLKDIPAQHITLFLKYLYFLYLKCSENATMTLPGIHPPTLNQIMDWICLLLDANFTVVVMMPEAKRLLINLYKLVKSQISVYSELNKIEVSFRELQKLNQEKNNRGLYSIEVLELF
UniProt Q8TCD5: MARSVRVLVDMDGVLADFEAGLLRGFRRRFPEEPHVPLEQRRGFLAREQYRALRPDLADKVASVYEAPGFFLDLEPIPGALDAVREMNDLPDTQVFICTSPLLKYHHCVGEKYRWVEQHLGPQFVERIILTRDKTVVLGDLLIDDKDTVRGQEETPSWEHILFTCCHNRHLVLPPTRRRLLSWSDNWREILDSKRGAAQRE
UniProt Q13287: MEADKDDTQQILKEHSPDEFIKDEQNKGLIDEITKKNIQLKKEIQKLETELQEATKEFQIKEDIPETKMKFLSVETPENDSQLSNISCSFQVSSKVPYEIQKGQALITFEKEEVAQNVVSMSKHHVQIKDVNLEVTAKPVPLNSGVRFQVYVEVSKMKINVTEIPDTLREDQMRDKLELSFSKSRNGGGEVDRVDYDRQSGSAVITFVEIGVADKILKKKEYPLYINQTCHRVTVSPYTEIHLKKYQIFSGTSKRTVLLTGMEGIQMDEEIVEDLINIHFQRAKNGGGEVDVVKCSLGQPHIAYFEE
UniProt Q14978: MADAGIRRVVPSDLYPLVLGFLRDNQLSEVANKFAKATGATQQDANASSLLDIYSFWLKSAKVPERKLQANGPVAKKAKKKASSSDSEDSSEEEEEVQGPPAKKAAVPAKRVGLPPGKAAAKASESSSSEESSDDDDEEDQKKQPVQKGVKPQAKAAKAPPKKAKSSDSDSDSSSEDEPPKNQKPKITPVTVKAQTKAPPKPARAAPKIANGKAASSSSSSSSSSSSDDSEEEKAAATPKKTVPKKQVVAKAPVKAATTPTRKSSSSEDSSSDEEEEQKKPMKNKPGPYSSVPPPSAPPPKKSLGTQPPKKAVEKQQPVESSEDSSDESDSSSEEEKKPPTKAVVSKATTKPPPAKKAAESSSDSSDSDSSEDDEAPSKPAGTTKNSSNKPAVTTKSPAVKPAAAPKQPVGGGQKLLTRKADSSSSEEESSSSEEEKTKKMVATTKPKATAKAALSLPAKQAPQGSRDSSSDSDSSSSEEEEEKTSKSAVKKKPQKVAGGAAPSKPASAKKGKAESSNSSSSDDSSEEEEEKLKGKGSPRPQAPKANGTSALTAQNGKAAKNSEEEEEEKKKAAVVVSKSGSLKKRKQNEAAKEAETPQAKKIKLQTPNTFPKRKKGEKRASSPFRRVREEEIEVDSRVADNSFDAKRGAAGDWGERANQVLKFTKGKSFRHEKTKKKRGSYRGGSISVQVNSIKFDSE
UniProt Q8WVJ2: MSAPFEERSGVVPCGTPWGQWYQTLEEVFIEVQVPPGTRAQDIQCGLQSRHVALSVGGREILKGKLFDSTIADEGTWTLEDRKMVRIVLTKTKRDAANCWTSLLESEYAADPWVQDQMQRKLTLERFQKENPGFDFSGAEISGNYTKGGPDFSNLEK
UniProt Q8NC60: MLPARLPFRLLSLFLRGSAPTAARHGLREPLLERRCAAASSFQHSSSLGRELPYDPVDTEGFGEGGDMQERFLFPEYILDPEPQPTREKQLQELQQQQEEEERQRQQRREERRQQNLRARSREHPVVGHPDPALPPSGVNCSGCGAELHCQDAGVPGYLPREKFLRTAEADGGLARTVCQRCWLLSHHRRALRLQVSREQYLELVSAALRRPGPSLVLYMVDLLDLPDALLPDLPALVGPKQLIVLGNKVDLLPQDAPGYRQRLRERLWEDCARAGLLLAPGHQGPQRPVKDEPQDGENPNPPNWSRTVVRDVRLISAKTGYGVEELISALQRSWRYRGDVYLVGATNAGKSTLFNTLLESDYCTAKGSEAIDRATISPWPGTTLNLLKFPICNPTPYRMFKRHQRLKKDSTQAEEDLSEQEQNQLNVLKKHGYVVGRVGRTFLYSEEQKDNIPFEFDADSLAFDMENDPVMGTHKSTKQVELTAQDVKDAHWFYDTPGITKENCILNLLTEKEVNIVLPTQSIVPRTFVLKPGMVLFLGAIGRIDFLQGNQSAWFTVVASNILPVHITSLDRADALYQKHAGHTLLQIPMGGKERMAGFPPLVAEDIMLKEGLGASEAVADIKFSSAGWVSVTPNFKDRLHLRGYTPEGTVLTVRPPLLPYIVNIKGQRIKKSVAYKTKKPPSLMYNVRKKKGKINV
UniProt P46459: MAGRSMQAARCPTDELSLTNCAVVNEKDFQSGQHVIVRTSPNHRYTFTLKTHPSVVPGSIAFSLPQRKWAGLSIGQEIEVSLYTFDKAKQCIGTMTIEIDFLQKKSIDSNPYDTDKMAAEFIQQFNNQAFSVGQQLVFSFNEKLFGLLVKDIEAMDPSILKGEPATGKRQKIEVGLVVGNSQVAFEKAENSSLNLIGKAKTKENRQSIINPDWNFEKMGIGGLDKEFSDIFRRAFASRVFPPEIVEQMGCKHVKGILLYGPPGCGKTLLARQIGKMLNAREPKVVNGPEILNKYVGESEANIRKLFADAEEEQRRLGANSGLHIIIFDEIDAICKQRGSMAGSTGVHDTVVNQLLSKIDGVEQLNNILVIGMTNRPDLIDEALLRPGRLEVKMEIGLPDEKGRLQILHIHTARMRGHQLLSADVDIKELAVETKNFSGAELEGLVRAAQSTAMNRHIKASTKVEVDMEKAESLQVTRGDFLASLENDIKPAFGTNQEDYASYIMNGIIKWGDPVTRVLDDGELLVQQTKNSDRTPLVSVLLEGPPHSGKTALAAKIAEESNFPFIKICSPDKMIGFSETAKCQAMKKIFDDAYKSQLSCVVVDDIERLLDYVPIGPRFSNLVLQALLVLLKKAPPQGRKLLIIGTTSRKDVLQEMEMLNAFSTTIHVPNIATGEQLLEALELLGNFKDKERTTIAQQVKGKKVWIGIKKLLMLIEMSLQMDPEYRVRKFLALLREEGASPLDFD
UniProt Q9Y314: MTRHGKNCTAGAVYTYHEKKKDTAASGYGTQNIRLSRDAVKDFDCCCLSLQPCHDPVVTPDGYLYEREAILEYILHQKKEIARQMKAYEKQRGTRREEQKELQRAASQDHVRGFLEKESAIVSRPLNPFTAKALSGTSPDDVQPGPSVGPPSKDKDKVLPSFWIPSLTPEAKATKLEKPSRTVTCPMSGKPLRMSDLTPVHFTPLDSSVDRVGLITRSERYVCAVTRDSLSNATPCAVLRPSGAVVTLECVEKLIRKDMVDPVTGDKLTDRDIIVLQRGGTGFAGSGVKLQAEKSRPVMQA

Columns and labels:
Assay in all cases: log2 fold change, soluble protein after heating vs DMSO (PISA); higher = thermal stabilisation; K562 lysate, 10 uM; active = over 0.2 and 3.5 SD of the protein, either way, in both replicates (recomputed)
erlotinib = compound: C#Cc1cccc(Nc2ncnc3cc(OCCOC)c(OCCOC)cc23)c1 [erlotinib]
How it was run: (§1)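 K562 pellets were dounce-homogenised in PBS pH 7.4 with 1 mM MgCl2, and the crude extract at 1 mg/mL protein was treated with 10 μM compound for 30 min. Aliquots were heated for 3 min across 48°C-58°C, pooled, and brought to 0.5% NP-40 at 4°C; soluble protein was the supernatant after 21,000xg for 90 min. Soluble protein was quantified by TMTpro 16plex LC-MS/MS with channel sums equalised, and reported as log2 fold change in thermal stability against DMSO controls, with values from duplicates.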

[1] = compound: C/C(=N\NC(=O)C1=CC(=CC=C1)S(=O)(=O)N2CCOCC2)/C3=C(C=CC(=C3)Cl)O
How it was run: as §1

[2] = compound: C1=CC(=CC=C1C2=NC3=C(N2)C=C(C=C3)C(=O)N)OC4=CC=C(C=C4)Cl
How it was run: as §1

[3] = compound: C1=CC2=C(C=CC(=C2)/C=C\3/C(=O)NC(=NCC4=CC=CS4)S3)N=C1
How it was run: as §1

[4] = compound: C1=CC2=NC=CN=C2C=C1/C=C/3\C(=O)NC(=O)S3
How it was run: as §1

[5] = compound: C1=CC=C(C=C1)C2=NC(=C(N2)C3=CC=NC=C3)C4=CC(=C(C=C4)Cl)O
How it was run: as §1

[6] = compound: C1=CC=C2C(=C1)C3=NNC4=CC=CC(=C43)C2=O
How it was run: as §1

[7] = compound: C1CCN(C1)C(=O)NC2=CC=CC(=C2)NC3=NC=C(C(=N3)NCCC4=CN=CN4)Br
How it was run: as §1

[8] = compound: C1CN(CCC1(CC2=CC=C(C=C2)Cl)N)C3=NC=NC4=C3C=CN4
How it was run: as §1

IRAK-1-4 Inhibitor I = compound: C1COCCN1CCN2C3=CC=CC=C3N=C2NC(=O)C4=CC(=CC=C4)[N+](=O)[O-] [IRAK-1-4 Inhibitor I]
How it was run: as §1

ibrutinib = compound: C=CC(=O)N1CCC[C@@H](n2nc(-c3ccc(Oc4ccccc4)cc3)c3c(N)ncnc32)C1 [ibrutinib]
How it was run: as §1

[9] = compound: CC(=O)c1cnc2ccc(-c3cc(Cl)c(O)c(Cl)c3)nc2c1N[C@H]1CC[C@H](CN(C)C)CC1
How it was run: as §1

ralimetinib = compound: CC(C)(C)Cn1c(N)nc2ccc(-c3[nH]c(C(C)(C)C)nc3-c3ccc(F)cc3)nc21 [ralimetinib]
How it was run: as §1

[10] = compound: CC(C)(O)CC(=O)NCCn1ccc2ncnc(Nc3ccc(Oc4cccc(C(F)(F)F)c4)c(Cl)c3)c21
How it was run: as §1

[11] = compound: CC(C)C1=C2N=C(C=C(N2N=C1)NCC3=CC=CC=C3)NCCCCCCN
How it was run: as §1

[12] = compound: CC1=C(C(CC(=O)N1)C2=CC=C(C=C2)C(F)(F)F)C(=O)NC3=C(C=C4C(=C3)C=NN4)F
How it was run: as §1

[13] = compound: CC1=C(C2=C(C=C1)C(=O)C3=CC=CC=C3N2CCCN)C
How it was run: as §1

[14] = compound: CC1=C(C=C(C=C1)NC(=O)C2=CC(=CC=C2)C(C)(C)C#N)NC3=CC4=C(C=C3)N=CN(C4=O)C
How it was run: as §1

[15] = compound: CC1=C(C=C(C=C1)NC(=O)C2=CC(=CC=C2)N(C)C)NC(=O)C3=CC=C(C=C3)O
How it was run: as §1

[16] = compound: CC1=CC=C(C=C1)SC2=C3C=C(SC3=CN=C2)C(=O)N
How it was run: as §1

Measured: log2 fold change

NPC2 (UniProt P61916)
inactive: erlotinib -0.017 | [1] 0.198 | [2] 0.059 | [3] -0.057 | [4] 0.039 | [5] -0.025 | [6] 0.069 | [7] -0.17 | [8] -0.039 | IRAK-1-4 Inhibitor I 0.038 | ibrutinib 0.036 | [9] 0.009 | ralimetinib 0.067 | [10] -0.06 | [11] 0.003 | [12] -0.033 | [13] 0.054 | [14] 0.022 | [15] 0.024 | [16] -0.004

NPTN (UniProt Q9Y639)
inactive: erlotinib -0.047 | [1] -0.02 | [2] -0.056 | [4] 0.008 | [5] 0.048 | [6] 0.17 | [7] -0.003 | [8] 0.007 | IRAK-1-4 Inhibitor I 0.064 | ibrutinib 0.069 | [9] 0.026 | ralimetinib 0.042 | [10] -0.009 | [11] 0.007 | [12] -0.02 | [13] -0.015 | [14] 0.038 | [15] 0.004 | [16] -0.046
active: [3] -0.421

NNT (UniProt Q13423)
inactive: erlotinib -0.027 | [1] 0.013 | [2] -0.014 | [3] -0.012 | [4] -0.006 | [5] -0.008 | [6] -0.033 | [7] 0 | [8] 0.031 | IRAK-1-4 Inhibitor I -0.026 | ibrutinib 0.012 | [9] -0.016 | ralimetinib -0.095 | [10] -0.01 | [11] -0.05 | [12] -0.011 | [13] -0.019 | [14] -0.007 | [15] 0.01 | [16] -0.009

NTHL1 (UniProt P78549)
inactive: erlotinib 0.128 | [1] 0.171 | [2] -0.013 | [3] -0.086 | [4] 0.213 | [5] 0.069 | [6] 0.022 | [7] -0.022 | [8] 0.012 | IRAK-1-4 Inhibitor I 0.033 | ibrutinib 0 | [9] -0.157 | ralimetinib -0.145 | [10] 0.015 | [11] 0.03 | [12] -0.089 | [13] -0.082 | [14] -0.158 | [15] 0.072 | [16] -0.076

NME7 (UniProt Q9Y5B8)
inactive: erlotinib -0.021 | [1] 0.043 | [2] 0.034 | [3] -0.015 | [4] 0.009 | [5] 0.004 | [6] -0.036 | [7] -0.002 | [8] 0.007 | IRAK-1-4 Inhibitor I 0.012 | ibrutinib 0.011 | [9] 0.029 | ralimetinib 0.039 | [10] 0.018 | [11] 0.02 | [12] -0.068 | [13] -0.007 | [14] -0.015 | [15] -0.023 | [16] -0.017

NUDT2 (UniProt P50583)
inactive: erlotinib 0.034 | [1] 0.051 | [2] -0.045 | [3] -0.025 | [4] -0.014 | [5] 0.041 | [6] 0.068 | [7] 0.017 | [8] -0.027 | IRAK-1-4 Inhibitor I -0.001 | ibrutinib -0.036 | [9] 0.013 | ralimetinib 0.034 | [10] -0.015 | [11] -0.027 | [12] -0.06 | [13] -0.003 | [14] 0.031 | [15] -0.021 | [16] 0

NOL11 (UniProt Q9H8H0)
inactive: erlotinib 0.045 | [1] -0.05 | [2] -0.007 | [3] 0.025 | [4] -0.026 | [5] -0.014 | [6] -0.016 | [7] -0.026 | [8] 0.013 | IRAK-1-4 Inhibitor I 0.021 | ibrutinib -0.025 | [9] 0.251 | ralimetinib 0.019 | [10] -0.027 | [11] -0.047 | [12] 0.039 | [13] -0.082 | [14] 0.054 | [15] -0.004 | [16] -0.001

NT5C (UniProt Q8TCD5)
inactive: erlotinib -0.059 | [1] -0.001 | [2] 0.008 | [3] 0.008 | [4] 0.044 | [5] -0.016 | [6] 0.003 | [7] 0.014 | [8] -0.01 | IRAK-1-4 Inhibitor I 0.004 | ibrutinib -0.059 | [9] 0.005 | ralimetinib -0.012 | [10] 0.035 | [11] -0.036 | [12] 0.048 | [13] -0.001 | [14] 0.006 | [15] -0.002 | [16] -0.038

Copied from the listing (two entries):
NUDT2 (UniProt P50583)
inactive: erlotinib 0.034 | [1] 0.051 | [2] -0.045 | [3] -0.025 | [4] -0.014 | [5] 0.041 | [6] 0.068 | [7] 0.017 | [8] -0.027 | IRAK-1-4 Inhibitor I -0.001 | ibrutinib -0.036 | [9] 0.013 | ralimetinib 0.034 | [10] -0.015 | [11] -0.027 | [12] -0.06 | [13] -0.003 | [14] 0.031 | [15] -0.021 | [16] 0

NOL11 (UniProt Q9H8H0)
inactive: erlotinib 0.045 | [1] -0.05 | [2] -0.007 | [3] 0.025 | [4] -0.026 | [5] -0.014 | [6] -0.016 | [7] -0.026 | [8] 0.013 | IRAK-1-4 Inhibitor I 0.021 | ibrutinib -0.025 | [9] 0.251 | ralimetinib 0.019 | [10] -0.027 | [11] -0.047 | [12] 0.039 | [13] -0.082 | [14] 0.054 | [15] -0.004 | [16] -0.001

(list continues)

NMI (UniProt Q13287)
inactive: erlotinib 0.011 | [1] -0.033 | [2] 0.003 | [3] 0.002 | [4] -0.023 | [5] 0.019 | [6] 0.009 | [7] -0.002 | [8] 0.006 | IRAK-1-4 Inhibitor I -0.003 | ibrutinib 0.016 | [9] -0.021 | ralimetinib -0.022 | [10] 0.04 | [11] 0.018 | [12] -0.024 | [13] 0.009 | [14] 0.009 | [15] 0.005 | [16] -0.019

NOLC1 isoform 2 (UniProt Q14978)
inactive: erlotinib -0.015 | [1] 0.006 | [2] -0.013 | [3] -0.028 | [4] -0.071 | [5] 0.008 | [6] 0.029 | [7] 0.011 | [8] -0.016 | IRAK-1-4 Inhibitor I 0.013 | ibrutinib 0.011 | [9] -0.008 | ralimetinib -0.01 | [10] -0.003 | [11] 0.013 | [12] -0.03 | [13] -0.027 | [14] 0.031 | [15] -0.016 | [16] -0.009

NUDCD2 (UniProt Q8WVJ2)
inactive: erlotinib 0.085 | [1] 0.014 | [2] 0.128 | [3] -0.072 | [4] 0.025 | [5] -0.013 | [6] 0.01 | [7] 0.021 | [8] -0.014 | IRAK-1-4 Inhibitor I 0.047 | ibrutinib 0.057 | [9] -0.025 | ralimetinib 0.026 | [10] -0.045 | [11] 0.092 | [12] -0.023 | [13] 0.004 | [14] 0.065 | [15] -0.031 | [16] -0.02

NOA1 (UniProt Q8NC60)
inactive: erlotinib 0.001 | [1] 0.003 | [2] -0.007 | [3] -0.051 | [4] -0.024 | [5] 0.033 | [6] -0.088 | [7] 0.07 | [8] -0.046 | IRAK-1-4 Inhibitor I -0.032 | ibrutinib -0.024 | [9] -0.025 | ralimetinib 0.002 | [10] 0.034 | [11] 0.005 | [12] -0.064 | [13] -0.02 | [14] 0.002 | [15] -0.001 | [16] 0.02

NSF (UniProt P46459)
inactive: erlotinib -0.019 | [1] 0.01 | [2] -0.037 | [3] -0.001 | [4] 0.005 | [5] 0.003 | [6] -0.029 | [7] -0.006 | [8] -0.013 | IRAK-1-4 Inhibitor I -0.01 | ibrutinib 0.002 | [9] 0.005 | ralimetinib 0.008 | [10] 0.005 | [11] -0.005 | [12] 0.003 | [13] 0.011 | [14] -0.021 | [15] 0.004 | [16] 0.002

NOC2L (UniProt Q9Y3T9)
inactive: erlotinib -0.036 | [1] -0.013 | [2] -0.018 | [3] -0.029 | [4] 0.027 | [5] 0.031 | [6] 0.077 | [7] -0.009 | [8] -0.004 | IRAK-1-4 Inhibitor I -0.046 | ibrutinib -0.047 | [9] 0.015 | ralimetinib 0.047 | [10] -0.005 | [11] 0.026 | [12] 0.014 | [13] -0.074 | [14] -0.02 | [15] 0.021 | [16] 0.014

NOSIP (UniProt Q9Y314)
inactive: erlotinib 0.012 | [1] -0.001 | [2] 0.023 | [3] 0.022 | [4] 0.011 | [5] 0.025 | [6] -0.019 | [7] 0.003 | [8] 0.022 | IRAK-1-4 Inhibitor I 0.01 | ibrutinib 0.028 | [9] 0.037 | ralimetinib 0 | [10] 0.009 | [11] -0.014 | [12] -0.009 | [13] 0 | [14] 0.047 | [15] 0.027 | [16] -0.009
